Test results as given in the supplement of paper PMC12823440, “Inhibitors supercharge kinase turnover through native proteolytic circuits” (Nature, 2025).
Counter-ions that a name gives are not always drawn. Some of the results follow. The calls rarely recur for the same compound in another form.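 In K562 cells expressing nanoluciferase-fused kinases, luminescence was recorded at 4 h intervals between 2 and 18 h, normalized as percent of control with DMSO at 100% and a positive control at 0%. A significant (2 sigma) signal drop marks a time point as decreased. The authors' rule for a hit is not shown and takes in more than the number of time points.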

Protein sequences, listed by entry. Tags and fused reporters are not part of them. Lines headed by an entry give the natural chain unless they say otherwise; changes in a name come on top.
UniProt Q9Y463, whole entry, looked up: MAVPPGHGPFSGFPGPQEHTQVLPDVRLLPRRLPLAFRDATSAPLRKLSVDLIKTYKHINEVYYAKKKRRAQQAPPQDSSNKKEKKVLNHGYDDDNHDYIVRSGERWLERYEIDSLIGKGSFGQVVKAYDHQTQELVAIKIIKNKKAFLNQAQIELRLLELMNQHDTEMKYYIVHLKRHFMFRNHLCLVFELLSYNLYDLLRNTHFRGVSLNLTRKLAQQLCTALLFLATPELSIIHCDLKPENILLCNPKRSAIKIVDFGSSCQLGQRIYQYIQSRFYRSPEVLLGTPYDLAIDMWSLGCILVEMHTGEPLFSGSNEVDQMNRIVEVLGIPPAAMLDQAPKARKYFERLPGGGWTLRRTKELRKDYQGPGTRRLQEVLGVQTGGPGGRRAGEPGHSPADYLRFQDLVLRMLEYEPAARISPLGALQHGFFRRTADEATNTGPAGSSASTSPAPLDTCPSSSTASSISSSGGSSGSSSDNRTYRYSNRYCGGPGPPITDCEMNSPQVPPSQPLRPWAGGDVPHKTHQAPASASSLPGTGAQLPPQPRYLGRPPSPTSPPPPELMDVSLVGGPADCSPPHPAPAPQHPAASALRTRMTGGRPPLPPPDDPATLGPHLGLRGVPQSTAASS
UniProt Q92630: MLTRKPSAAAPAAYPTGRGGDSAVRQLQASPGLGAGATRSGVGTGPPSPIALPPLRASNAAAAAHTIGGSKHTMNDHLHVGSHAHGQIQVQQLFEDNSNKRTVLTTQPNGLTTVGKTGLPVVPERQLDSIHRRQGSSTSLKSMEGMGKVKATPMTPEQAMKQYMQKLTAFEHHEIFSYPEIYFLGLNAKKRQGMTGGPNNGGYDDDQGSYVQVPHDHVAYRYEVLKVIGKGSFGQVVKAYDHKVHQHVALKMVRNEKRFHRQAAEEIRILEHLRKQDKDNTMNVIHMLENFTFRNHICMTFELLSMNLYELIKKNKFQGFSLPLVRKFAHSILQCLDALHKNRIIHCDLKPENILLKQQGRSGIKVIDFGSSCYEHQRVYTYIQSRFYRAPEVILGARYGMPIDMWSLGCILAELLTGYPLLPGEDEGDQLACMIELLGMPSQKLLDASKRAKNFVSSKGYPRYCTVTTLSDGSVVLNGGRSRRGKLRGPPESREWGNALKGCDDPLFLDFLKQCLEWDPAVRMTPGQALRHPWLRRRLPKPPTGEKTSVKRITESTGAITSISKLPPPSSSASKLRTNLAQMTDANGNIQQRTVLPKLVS

Molecular target: DYRK1B (UniProt Q9Y463)
Test: kinase-Nluc reporter destabilization hit call (1 = scored as downregulated) (binary); higher = compound decreases kinase abundance
Settings: K562; 2-18 h

kinase-Nluc reporter destabilization hit call, inactive:
CNC(=O)c1cc(Oc2ccc(NC(=O)Nc3cc(C(C)(C)C)nn3-c3ccc4ncccc4c3)c(F)c2)ccn1 [Rebastinib] (2.5 µM) 0, CCCn1cnc2c(NCc3ccccc3)nc(NC(CC)CO)nc21 (stereo not drawn) [Ca2+ channel agonist 1] (2.5 µM) 0, Brc1c(Br)c(Br)c2n[nH]nc2c1Br (10 µM) 0, C=CC(=O)Nc1cccc(Nc2nc(Nc3ccc(OCCOC)cc3)ncc2F)c1 [Spebrutinib] (10 µM) 0, CC(C)=CC/C=C(\C)[C@H]1CC[C@]2(C)[C@@H]1[C@H](O)C[C@@H]1[C@@]3(C)CC[C@H](O[C@@H]4O[C@H](CO)[C@@H](O)[C@H](O)[C@H]4O[C@@H]4O[C@H](CO)[C@@H](O)[C@H](O)[C@H]4O)C(C)(C)[C@@H]3CC[C@]12C [Ginsenoside Rg5] (10 µM) 0, Cc1ncc(-c2ccnc(Nc3ccc(S(C)(=O)=O)cc3)n2)n1C(C)C (2.5 µM) 0, CN(C)CCOc1ccc(-c2nc(-c3ccncc3)c(-c3ccc4c(c3)CC/C4=N\O)[nH]2)cc1 (10 µM) 0, CCN(CCCOc1ccc2c(Nc3cc(CC(=O)Nc4cccc(F)c4)[nH]n3)ncnc2c1)CCOP(=O)(O)O [Barasertib] (10 µM) 0, C=CC(=O)N[C@H]1COC[C@H]1Nc1ncc2cc(-c3c(Cl)c(OC)cc(OC)c3Cl)c(=O)n(C)c2n1 (10 µM) 0

Molecular target: DYRK2 (UniProt Q92630)
Test: as above
Settings: K562; 2-18 h

kinase-Nluc reporter destabilization hit call, inactive:
CC#CC(=O)N[C@H]1CCCN(c2c(F)cc(C(N)=O)c3[nH]c(C)c(C)c23)C1 [Branebrutinib] (10 µM) 0, O=C1NC(=NCc2cccs2)S/C1=C\c1ccc2ncccc2c1 (10 µM) 0, Cn1c(=O)n(-c2ccc(C(C)(C)C#N)cc2)c2c3cc(-c4cnc5ccccc5c4)ccc3ncc21 [Dactolisib (Tosylate)] (10 µM) 0, COC(=O)c1ccc2c(C(=Nc3ccc(N(C)C(=O)CN4CCN(C)CC4)cc3)c3ccccc3)c(O)[nH]c2c1 [Nintedanib] (2.5 µM) 0, COc1cc2ncnc(Nc3ccc(O)cc3)c2cc1OC (10 µM) 0, O=C(c1ccc(-c2ccc(Cl)cc2)o1)N(Cc1ccccn1)c1ccc(N2CCNCC2)cc1 [MK2-IN-1 (hydrochloride)] (10 µM) 0, CN1CCN(S(=O)(=O)c2ccc(-c3cnc(N)c(C(=O)Nc4cccnc4)n3)cc2)CC1 (10 µM) 0, CN(C)C[C@@H]1CCn2cc(c3ccccc32)C2=C(C(=O)NC2=O)c2cn(c3ccccc23)CCO1 [Ruboxistaurin (hydrochloride)] (10 µM) 0, COc1ccc(Oc2cc(NCCC(F)(F)F)c3ncc(-c4ccc(C(=O)NC5CC5)c(C)c4)n3n2)c(F)c1F (2.5 µM) 0, CCCCNc1ncc(-c2ccc(CN3CCOCC3)cn2)c(NC2CCC(O)CC2)n1 (stereo not drawn) (10 µM) 0, O=C(Nc1cc(C(F)(F)F)ccc1N1CCN(Cc2ccccn2)CC1)c1ccc(-c2ccncc2)o1 (10 µM) 0, CC(C)(/C=C(\C#N)C(=O)N1CCC[C@@H](n2nc(-c3ccc(Oc4ccccc4)cc3F)c3c(N)ncnc32)C1)N1CCN(C2COC2)CC1 (2.5 µM) 0, CNC(=O)c1cccc2cc(Oc3ccnc4cc(OCC5(N)CC5)c(OC)cc34)ccc12 [Lucitanib] (10 µM) 0, COc1cc(F)cc([C@@H](CO)NC(=O)[C@@H](C)N2Cc3ccc(-c4nc(NC5CCOCC5)ncc4Cl)cc3C2=O)c1 [ERK1/2 inhibitor 2] (10 µM) 0, O=c1cc(-c2ccccc2)oc2c(O)c(O)ccc12 [7,8-Dihydroxyflavone] (10 µM) 0, C=CC(=O)N1CC[C@H](n2nc(C#Cc3cc(OC)cc(OC)c3)c3c(N)ncnc32)C1 [Futibatinib] (10 µM) 0, O=C1Nc2ccccc2/C1=C/c1ccc(F)cc1 (10 µM) 0, CN(C)Cc1ccc(-c2cnn3c(-c4cccc(NC(=O)c5cccc(C(F)(F)F)c5)c4)ccnc23)cc1 (2.5 µM) 0, Cc1c[nH]c(/C=C2\C(=O)Nc3ccccc32)c1CCC(=O)O (10 µM) 0
